Measurements published in paper PMC8213057, “Targeting ALK2: An Open Science Approach to Developing Therapeutics for the Treatment of Diffuse Intrinsic Pontine Glioma” (Journal of Medicinal Chemistry, 2020).

Protein sequences, listed by entry. Tags and fused reporters are not part of them. Lines headed by an entry give the natural chain unless they say otherwise; changes in a name come on top.
UniProt Q9UBS0: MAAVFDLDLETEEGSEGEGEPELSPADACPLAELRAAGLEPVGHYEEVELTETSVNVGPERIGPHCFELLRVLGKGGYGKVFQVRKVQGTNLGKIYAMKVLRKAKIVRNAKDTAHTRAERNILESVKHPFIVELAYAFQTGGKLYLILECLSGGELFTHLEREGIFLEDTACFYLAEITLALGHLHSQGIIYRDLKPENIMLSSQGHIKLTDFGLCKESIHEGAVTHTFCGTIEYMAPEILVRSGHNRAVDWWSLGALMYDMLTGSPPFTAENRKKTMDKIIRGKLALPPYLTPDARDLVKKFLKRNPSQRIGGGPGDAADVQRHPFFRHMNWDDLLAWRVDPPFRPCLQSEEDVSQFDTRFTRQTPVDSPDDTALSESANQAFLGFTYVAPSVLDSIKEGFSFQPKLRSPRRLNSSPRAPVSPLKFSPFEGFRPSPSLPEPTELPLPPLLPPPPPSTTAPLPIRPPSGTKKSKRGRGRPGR
UniProt Q86Z02: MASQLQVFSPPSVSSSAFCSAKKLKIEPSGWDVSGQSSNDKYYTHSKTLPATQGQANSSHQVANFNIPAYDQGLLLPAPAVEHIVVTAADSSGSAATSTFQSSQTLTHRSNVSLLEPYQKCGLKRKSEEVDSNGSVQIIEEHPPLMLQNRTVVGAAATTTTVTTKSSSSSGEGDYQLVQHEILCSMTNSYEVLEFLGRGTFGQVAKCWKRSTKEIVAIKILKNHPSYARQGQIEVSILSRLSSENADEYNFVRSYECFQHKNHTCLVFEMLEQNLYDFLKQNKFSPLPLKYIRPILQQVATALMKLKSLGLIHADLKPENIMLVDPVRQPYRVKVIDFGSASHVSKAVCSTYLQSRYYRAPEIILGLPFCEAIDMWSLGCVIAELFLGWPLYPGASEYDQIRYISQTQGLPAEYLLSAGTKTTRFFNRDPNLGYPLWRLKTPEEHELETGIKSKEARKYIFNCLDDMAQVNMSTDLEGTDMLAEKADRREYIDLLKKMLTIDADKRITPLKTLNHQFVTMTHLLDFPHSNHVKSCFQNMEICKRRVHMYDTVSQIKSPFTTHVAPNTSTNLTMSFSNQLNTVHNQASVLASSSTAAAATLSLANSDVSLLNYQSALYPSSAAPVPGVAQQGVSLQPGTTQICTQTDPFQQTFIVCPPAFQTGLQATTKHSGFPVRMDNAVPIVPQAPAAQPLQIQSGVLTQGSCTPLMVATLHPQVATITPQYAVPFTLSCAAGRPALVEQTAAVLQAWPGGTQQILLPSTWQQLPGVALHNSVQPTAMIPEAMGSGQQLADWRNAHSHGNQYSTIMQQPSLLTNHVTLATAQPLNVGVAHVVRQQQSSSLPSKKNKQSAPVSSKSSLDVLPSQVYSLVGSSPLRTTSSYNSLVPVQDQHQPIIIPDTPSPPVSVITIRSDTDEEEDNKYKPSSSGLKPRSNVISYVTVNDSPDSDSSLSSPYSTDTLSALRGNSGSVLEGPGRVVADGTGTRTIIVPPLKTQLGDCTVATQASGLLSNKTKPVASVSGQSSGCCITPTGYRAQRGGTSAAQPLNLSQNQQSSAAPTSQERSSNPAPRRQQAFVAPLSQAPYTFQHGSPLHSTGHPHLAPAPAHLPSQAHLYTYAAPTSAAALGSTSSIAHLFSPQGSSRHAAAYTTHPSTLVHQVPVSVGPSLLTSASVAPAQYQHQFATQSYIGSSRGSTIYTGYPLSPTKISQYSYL
UniProt Q13882, whole entry: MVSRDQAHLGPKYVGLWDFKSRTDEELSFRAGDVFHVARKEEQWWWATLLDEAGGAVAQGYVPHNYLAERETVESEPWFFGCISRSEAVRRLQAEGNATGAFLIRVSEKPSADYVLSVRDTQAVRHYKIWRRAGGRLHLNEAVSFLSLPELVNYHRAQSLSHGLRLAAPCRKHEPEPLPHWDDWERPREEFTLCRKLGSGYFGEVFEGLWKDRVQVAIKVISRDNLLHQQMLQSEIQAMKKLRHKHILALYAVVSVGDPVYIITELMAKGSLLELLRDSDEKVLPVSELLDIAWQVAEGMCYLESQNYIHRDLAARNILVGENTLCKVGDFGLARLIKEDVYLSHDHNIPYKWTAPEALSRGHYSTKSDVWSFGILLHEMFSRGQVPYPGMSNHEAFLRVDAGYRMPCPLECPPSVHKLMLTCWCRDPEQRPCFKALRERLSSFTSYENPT
UniProt O75914, whole entry: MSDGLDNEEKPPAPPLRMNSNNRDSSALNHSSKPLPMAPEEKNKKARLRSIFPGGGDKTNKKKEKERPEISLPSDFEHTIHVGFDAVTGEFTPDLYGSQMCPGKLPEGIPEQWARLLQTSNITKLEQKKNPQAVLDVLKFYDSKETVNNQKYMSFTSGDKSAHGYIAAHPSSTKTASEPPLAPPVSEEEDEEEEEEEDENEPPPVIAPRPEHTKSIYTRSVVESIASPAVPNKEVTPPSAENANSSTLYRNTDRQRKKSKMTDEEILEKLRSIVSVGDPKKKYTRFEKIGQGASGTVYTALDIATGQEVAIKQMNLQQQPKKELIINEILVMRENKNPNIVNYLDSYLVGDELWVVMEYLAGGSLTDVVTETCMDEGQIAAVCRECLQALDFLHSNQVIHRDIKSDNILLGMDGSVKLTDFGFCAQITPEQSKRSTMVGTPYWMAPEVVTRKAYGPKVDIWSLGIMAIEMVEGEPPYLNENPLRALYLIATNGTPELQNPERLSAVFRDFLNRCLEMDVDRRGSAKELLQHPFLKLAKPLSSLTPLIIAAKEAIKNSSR
UniProt P20794: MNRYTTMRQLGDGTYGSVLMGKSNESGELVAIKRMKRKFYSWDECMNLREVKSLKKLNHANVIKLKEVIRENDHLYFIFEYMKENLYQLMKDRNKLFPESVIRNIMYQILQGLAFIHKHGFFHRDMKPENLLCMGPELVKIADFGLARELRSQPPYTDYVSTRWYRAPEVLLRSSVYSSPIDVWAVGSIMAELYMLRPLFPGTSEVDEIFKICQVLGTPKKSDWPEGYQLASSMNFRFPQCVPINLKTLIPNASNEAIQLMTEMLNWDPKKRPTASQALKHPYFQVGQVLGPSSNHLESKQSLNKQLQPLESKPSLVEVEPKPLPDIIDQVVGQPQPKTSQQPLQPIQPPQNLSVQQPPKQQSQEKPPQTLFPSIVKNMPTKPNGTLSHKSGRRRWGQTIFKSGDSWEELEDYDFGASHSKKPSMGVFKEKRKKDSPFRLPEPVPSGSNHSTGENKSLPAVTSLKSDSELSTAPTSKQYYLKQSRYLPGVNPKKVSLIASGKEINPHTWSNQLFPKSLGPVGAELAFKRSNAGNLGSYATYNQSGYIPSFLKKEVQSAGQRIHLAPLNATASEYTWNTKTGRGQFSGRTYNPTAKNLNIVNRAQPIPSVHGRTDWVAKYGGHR
UniProt P30291, whole entry, species assumed: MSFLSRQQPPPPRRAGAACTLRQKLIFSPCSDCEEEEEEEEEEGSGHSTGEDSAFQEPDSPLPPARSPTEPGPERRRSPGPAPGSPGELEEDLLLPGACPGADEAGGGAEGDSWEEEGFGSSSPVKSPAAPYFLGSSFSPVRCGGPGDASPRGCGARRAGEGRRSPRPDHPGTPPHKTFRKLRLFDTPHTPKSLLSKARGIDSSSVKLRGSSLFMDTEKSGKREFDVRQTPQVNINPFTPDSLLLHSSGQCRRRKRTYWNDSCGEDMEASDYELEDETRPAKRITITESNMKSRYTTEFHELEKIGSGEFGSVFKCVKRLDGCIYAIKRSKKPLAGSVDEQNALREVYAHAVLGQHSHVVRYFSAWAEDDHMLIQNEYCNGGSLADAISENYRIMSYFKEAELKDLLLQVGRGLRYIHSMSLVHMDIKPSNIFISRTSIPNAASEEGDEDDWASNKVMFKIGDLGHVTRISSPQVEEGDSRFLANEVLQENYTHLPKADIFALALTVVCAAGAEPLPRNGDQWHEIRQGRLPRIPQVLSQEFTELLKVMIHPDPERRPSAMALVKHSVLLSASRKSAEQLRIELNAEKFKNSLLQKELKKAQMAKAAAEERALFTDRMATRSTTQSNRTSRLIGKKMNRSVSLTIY
UniProt P00519, whole entry: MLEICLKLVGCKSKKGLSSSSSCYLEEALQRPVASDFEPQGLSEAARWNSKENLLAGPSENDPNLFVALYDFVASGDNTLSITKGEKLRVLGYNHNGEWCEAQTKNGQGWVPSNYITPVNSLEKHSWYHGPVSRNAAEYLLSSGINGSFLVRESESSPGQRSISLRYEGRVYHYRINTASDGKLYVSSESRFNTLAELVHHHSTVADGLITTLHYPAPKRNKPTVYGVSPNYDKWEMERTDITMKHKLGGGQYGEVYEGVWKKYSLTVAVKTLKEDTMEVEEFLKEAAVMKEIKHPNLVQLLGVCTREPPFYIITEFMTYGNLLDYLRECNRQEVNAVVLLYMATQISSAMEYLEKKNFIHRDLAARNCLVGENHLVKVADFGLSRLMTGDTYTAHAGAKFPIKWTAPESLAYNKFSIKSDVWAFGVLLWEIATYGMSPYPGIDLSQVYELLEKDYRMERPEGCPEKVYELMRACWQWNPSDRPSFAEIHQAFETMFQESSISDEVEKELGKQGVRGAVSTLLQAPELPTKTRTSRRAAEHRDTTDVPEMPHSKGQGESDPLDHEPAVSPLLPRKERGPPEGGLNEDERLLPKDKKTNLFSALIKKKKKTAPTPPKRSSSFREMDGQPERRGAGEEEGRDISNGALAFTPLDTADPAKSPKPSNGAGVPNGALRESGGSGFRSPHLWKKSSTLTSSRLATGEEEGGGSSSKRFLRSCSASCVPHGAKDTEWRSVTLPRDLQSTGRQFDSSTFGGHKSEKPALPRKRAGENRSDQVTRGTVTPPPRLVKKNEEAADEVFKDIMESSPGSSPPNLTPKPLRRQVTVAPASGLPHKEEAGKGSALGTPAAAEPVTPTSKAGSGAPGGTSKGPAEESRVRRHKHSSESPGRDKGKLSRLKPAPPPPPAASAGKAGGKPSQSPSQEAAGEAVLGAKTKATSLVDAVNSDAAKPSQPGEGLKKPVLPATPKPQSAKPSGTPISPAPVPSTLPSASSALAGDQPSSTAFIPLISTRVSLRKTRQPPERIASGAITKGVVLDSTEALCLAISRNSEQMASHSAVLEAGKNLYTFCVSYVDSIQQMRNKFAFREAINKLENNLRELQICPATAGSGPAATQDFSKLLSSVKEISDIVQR
UniProt Q99759: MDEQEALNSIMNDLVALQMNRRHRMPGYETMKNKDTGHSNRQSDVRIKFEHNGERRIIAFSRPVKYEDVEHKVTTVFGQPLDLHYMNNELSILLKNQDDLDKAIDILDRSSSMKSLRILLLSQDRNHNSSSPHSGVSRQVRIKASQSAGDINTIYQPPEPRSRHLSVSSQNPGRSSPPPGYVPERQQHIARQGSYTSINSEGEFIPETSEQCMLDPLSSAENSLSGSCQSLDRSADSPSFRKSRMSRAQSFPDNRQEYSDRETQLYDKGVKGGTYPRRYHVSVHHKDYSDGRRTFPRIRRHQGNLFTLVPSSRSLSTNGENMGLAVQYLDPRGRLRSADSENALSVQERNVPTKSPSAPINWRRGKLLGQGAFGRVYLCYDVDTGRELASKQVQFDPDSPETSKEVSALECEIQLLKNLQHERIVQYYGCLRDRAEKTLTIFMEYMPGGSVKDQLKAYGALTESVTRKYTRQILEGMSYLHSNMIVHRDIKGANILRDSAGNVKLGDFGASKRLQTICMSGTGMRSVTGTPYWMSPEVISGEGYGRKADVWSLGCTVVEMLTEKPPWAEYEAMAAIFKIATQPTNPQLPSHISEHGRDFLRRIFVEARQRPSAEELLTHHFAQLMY
UniProt Q8N568: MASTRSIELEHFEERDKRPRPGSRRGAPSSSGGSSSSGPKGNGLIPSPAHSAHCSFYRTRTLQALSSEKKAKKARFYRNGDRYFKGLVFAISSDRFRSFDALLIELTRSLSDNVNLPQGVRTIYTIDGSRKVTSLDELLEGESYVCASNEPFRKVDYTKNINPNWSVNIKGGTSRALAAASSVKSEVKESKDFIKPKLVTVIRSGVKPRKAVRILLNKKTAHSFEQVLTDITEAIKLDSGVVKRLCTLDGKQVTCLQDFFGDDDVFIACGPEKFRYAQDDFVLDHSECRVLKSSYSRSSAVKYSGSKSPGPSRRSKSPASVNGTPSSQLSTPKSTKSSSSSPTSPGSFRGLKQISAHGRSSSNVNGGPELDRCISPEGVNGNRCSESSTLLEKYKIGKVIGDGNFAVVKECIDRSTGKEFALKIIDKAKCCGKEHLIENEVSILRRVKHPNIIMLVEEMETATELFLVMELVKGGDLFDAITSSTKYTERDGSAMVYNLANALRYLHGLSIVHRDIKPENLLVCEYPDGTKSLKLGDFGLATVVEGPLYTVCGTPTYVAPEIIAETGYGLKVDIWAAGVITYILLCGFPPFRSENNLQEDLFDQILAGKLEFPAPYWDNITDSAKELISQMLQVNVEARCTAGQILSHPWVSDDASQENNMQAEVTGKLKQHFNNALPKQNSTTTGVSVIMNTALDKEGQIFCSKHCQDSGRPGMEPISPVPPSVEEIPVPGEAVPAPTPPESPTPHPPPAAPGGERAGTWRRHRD

Tests used:
TBK1 = TBK1 (Homo sapiens, UniProt Q9UHD2); experiment: biochemical; settings: read-out: % enzyme activity, 1 μM; Run 1, Run 2
HIPK4 = HIPK4 (Homo sapiens, UniProt Q8NE63); experiment: biochemical; settings: read-out: % enzyme activity, 1 μM; Run 1, Run 2
NEK2 = NEK2 (Homo sapiens, UniProt P51955); settings: 1 μM; Run 1, Run 2
ROCK2 = ROCK2 (Homo sapiens, UniProt O75116); experiment: biochemical; settings: read-out: % enzyme activity, 1 μM; Run 1, Run 2
MST2/STK3 = MST2/STK3 (Homo sapiens, UniProt Q13188); settings: 1 μM; Run 1, Run 2
MNK1 = MNK1 (Homo sapiens, UniProt Q9BUB5); experiment: biochemical; settings: read-out: % enzyme activity, 1 μM; Run 1, Run 2
CAMK2b = CAMK2b (Homo sapiens, UniProt Q13554); settings: 1 μM; Run 1, Run 2
WNK3 = WNK3 (Homo sapiens, UniProt Q9BYP7); settings: 1 μM; Run 1, Run 2
CDK6/cyclin D1 = CDK6/cyclin D1 (Homo sapiens, UniProt Q00534); settings: 1 μM; Run 1, Run 2
CDK2/cyclin E = CDK2/cyclin E (Homo sapiens, UniProt P24941); settings: 1 μM; Run 1, Run 2
p70S6Kb/RPS6KB2 = p70S6Kb/RPS6KB2 (Homo sapiens, UniProt Q9UBS0); experiment: biochemical; settings: read-out: % enzyme activity, 1 μM; Run 1, Run 2
CAMK1d = CAMK1d (Homo sapiens, UniProt Q8IU85); experiment: biochemical; settings: read-out: % enzyme activity, 1 μM; Run 1, Run 2
TESK1 = TESK1 (Homo sapiens, UniProt Q15569); experiment: biochemical; settings: read-out: % enzyme activity, 1 μM; Run 1, Run 2
GCK/MAP4K2 = GCK/MAP4K2 (Homo sapiens, UniProt Q12851); experiment: biochemical; settings: read-out: % enzyme activity, 1 μM; Run 1, Run 2
HIPK2 = HIPK2 (Homo sapiens, UniProt Q9H2X6); settings: 1 μM; Run 1, Run 2
HIPK1 = HIPK1 (Homo sapiens, UniProt Q86Z02); settings: 1 μM; Run 1, Run 2
MSK2/RPS6KA4 = MSK2/RPS6KA4 (Homo sapiens, UniProt O75676); experiment: biochemical; settings: read-out: % enzyme activity, 1 μM; Run 1, Run 2
LIMK2 = LIMK2 (Homo sapiens, UniProt P53671); experiment: biochemical; settings: read-out: % enzyme activity, 1 μM; Run 1, Run 2
ZAP70 = ZAP70 (Homo sapiens, UniProt P43403); settings: 1 μM; Run 1, Run 2
EGFR = EGFR (Homo sapiens, UniProt P00533); experiment: biochemical; settings: read-out: % enzyme activity, 1 μM; Run 1, Run 2
BRK = BRK (Homo sapiens, UniProt Q13882); experiment: biochemical; settings: read-out: % enzyme activity, 1 μM; Run 1, Run 2
PAK3 = PAK3 (Homo sapiens, UniProt O75914); settings: 1 μM; Run 1, Run 2
JNK2 = JNK2 (Homo sapiens, UniProt P45984); settings: 1 μM; Run 1, Run 2
MLK4 = MLK4 (Homo sapiens, UniProt Q5TCX8); experiment: biochemical; settings: read-out: % enzyme activity, 1 μM; Run 1, Run 2
MAK = MAK (Homo sapiens, UniProt P20794); settings: 1 μM; Run 1, Run 2
WEE1 = WEE1 (Homo sapiens, UniProt P30291); experiment: biochemical; settings: read-out: % enzyme activity, 1 μM; Run 1, Run 2
STK32C/YANK3 = STK32C/YANK3 (Homo sapiens, UniProt Q86UX6); experiment: biochemical; settings: read-out: % enzyme activity, 1 μM; Run 1, Run 2
CAMKK2 = CAMKK2 (Homo sapiens, UniProt Q96RR4); settings: 1 μM; Run 1, Run 2
CDK9/cyclin T2 = CDK9/cyclin T2 (Homo sapiens, UniProt P50750); settings: 1 μM; Run 1, Run 2
c-Kit = c-Kit (Homo sapiens, UniProt P10721); experiment: biochemical; settings: read-out: % enzyme activity, 1 μM; Run 1, Run 2
ABL1 = ABL1 (Homo sapiens, UniProt P00519); settings: 1 μM; Run 1, Run 2
ERK1 = ERK1 (Homo sapiens, UniProt P27361); settings: 1 μM; Run 1, Run 2
BTK = BTK (Homo sapiens, UniProt Q06187); settings: 1 μM; Run 1, Run 2
MUSK = MUSK (Homo sapiens, UniProt O15146); experiment: biochemical; settings: read-out: % enzyme activity, 1 μM; Run 1, Run 2
RIPK5 = RIPK5 (Homo sapiens, UniProt Q6XUX3); experiment: biochemical; settings: read-out: % enzyme activity, 1 μM; Run 1, Run 2
PKCeta = PKCeta (Homo sapiens, UniProt P24723); experiment: biochemical; settings: read-out: % enzyme activity, 1 μM; Run 1, Run 2
MEKK3 = MEKK3 (Homo sapiens, UniProt Q99759); settings: 1 μM; Run 1, Run 2
DCAMKL2 = DCAMKL2 (Homo sapiens, UniProt Q8N568); settings: 1 μM; Run 1, Run 2
YES/YES1 = YES/YES1 (Homo sapiens, UniProt P07947); settings: 1 μM; Run 1, Run 2
c-MER = c-MER (Homo sapiens, UniProt Q12866); experiment: biochemical; settings: read-out: % enzyme activity, 1 μM; Run 1, Run 2
PKCmu/PRKD1 = PKCmu/PRKD1 (Homo sapiens, UniProt Q15139); settings: 1 μM; Run 1, Run 2
DMPK2 = DMPK2 (Homo sapiens, UniProt Q6DT37); settings: 1 μM; Run 1, Run 2
NEK6 = NEK6 (Homo sapiens, UniProt Q9HC98); settings: 1 μM; Run 1, Run 2

COc1cc(-c2cncc(-c3ccc(N4CCN(C(C)C)CC4)cc3)c2C)cc(F)c1C(N)=O [Compound 26b, 2-Fluoro-4-(5-(4-(4-isopropylpiperazin-1-yl)phenyl)-4-methylpyridin-3-yl)-6-methoxybenzamide]
remaining activity at 1 µM (TBK1): 87% | remaining activity at 1 µM (HIPK4): 104% | % enzyme activity (NEK2): 91.46% | remaining activity at 1 µM (ROCK2): 122% | % enzyme activity (MST2/STK3): 93.52% | remaining activity at 1 µM (MNK1): 61% | % enzyme activity (CAMK2b): 86.76% | % enzyme activity (WNK3): 90.95% | % enzyme activity (CDK6/cyclin D1): 100.82% | % enzyme activity (CDK2/cyclin E): 104.69% | remaining activity at 1 µM (p70S6Kb/RPS6KB2): 103% | remaining activity at 1 µM (CAMK1d): 101% | remaining activity at 1 µM (TESK1): 108% | remaining activity at 1 µM (GCK/MAP4K2): 68.2% | % enzyme activity (HIPK2): 96.91% | % enzyme activity (HIPK1): 99.62% | remaining activity at 1 µM (MSK2/RPS6KA4): 96% | remaining activity at 1 µM (LIMK2): 105% | % enzyme activity (ZAP70): 98.79% | remaining activity at 1 µM (EGFR): 101% | remaining activity at 1 µM (BRK): 65.3% | % enzyme activity (PAK3): 89.47% | % enzyme activity (JNK2): 90.94% | remaining activity at 1 µM (MLK4): 91.2% | % enzyme activity (MAK): 110.09% | remaining activity at 1 µM (WEE1): 129% | remaining activity at 1 µM (STK32C/YANK3): 92.8% | % enzyme activity (CAMKK2): 79.29% | % enzyme activity (CDK9/cyclin T2): 102.02% | remaining activity at 1 µM (c-Kit): 80.8% | % enzyme activity (ABL1): 80.78% | % enzyme activity (ERK1): 97.39% | % enzyme activity (BTK): 97.62% | remaining activity at 1 µM (MUSK): 90.3% | remaining activity at 1 µM (RIPK5): 84.8% | remaining activity at 1 µM (PKCeta): 96.8% | % enzyme activity (MEKK3): 92.94% | % enzyme activity (DCAMKL2): 69.99% | % enzyme activity (YES/YES1): 98.27% | remaining activity at 1 µM (c-MER): 97% | % enzyme activity (PKCmu/PRKD1): 90.68% | % enzyme activity (DMPK2): 85.28% | % enzyme activity (NEK6): 100.11%
